Values of other authors in patent publication US7563613B2, “Detoxification and decontamination using nanotechnology therapy” (University of Florida, priority 2001, dated 2009).

How the values were obtained:
[1] = in vivo; cited from earlier work
[2] = at toxic plasma concentration; cited from earlier work

CCCCc1oc2ccccc2c1C(=O)c1cc(I)c(OCCN(CC)CC)c(I)c1 [amiodarone]
plasma concentration that begins to cause cardiac toxicity [1]: approximately 3,500 ng/ml | bound in plasma [2]: 99.98±0.01%
